# Laboratory results reported in PMC11271275, “The structural insight into the functional modulation of human anion exchanger 3” (Nature Communications, 2024).
# No constants are given. Whether binding was seen depends on the method and setting. Binding can be weak; no strength is given.
# Molecular target: T1, Transmembrane domain (TMD) of human AE2, as it stands in the hAE3^NTD2^TMD chimera (human) (UniProt P04920)
# T1 sequence: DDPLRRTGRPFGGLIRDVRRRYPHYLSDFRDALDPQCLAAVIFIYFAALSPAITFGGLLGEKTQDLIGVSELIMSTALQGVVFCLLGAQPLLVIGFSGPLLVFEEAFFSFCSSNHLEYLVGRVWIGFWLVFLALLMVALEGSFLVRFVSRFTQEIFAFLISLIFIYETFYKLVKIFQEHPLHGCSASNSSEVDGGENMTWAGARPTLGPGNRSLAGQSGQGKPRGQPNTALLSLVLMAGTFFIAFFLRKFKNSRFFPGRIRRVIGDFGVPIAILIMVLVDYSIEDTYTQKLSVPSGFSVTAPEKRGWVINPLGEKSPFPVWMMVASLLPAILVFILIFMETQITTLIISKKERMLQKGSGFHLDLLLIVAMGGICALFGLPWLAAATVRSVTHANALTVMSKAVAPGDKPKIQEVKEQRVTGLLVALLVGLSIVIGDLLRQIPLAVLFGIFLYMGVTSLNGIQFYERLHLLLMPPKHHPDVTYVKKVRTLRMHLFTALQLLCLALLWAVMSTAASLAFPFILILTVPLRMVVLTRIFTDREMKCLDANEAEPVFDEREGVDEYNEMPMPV
# Experiment: cryo-EM structure; hAE3^NTD2^TMD chimera in GDN; 300 kV Titan Krios, C2 symmetry; 3.35 Å; TMDs inward-facing; both purified
substance,measurement,value
"N-terminal domain (NTD) of human AE3, as it stands in the hAE3^NTD2^TMD chimera (domain or fragment)",binding,binds
